Experimental data: patent publication US5459256A, “Lipophilic, aminohydrolase-activated prodrugs” (priority 1991, dated 1995)
At least one compound was matched to its structure with a doubt left. Some compounds share one wording; it may come from a single statement.

Tests used:
[1] = system: human immunodeficiency virus (HIV); settings: background statement; cited from earlier work
[2] = target: T1, adenosine deaminase (adenosine aminohydrolase, EC 3.5.4.4) (Bos taurus, UniProt P56658); assay: Enzymatic deamination by adenosine deaminase (HPLC); settings: pH 7.4 and 37° C.
T1 sequence (P56658 1-363): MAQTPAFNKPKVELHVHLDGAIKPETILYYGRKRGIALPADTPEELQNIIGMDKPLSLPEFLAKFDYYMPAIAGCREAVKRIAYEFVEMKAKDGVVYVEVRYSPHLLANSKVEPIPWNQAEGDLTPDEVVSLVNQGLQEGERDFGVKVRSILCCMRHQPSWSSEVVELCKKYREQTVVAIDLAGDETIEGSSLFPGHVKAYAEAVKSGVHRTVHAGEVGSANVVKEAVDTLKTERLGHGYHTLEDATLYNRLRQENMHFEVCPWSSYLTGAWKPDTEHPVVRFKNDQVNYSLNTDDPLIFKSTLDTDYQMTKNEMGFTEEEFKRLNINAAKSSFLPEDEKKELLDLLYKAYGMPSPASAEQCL
Experimental: FIG. 1. Deamination of dideoxyadenosine analogues by adenosine deaminase. Hydrolysis kinetics and 2'-F-dd-ara-I formation during the incubation of 50 μM N^6 -CH3 -2'-F-dd-ara-A (1f) with 0.7 units/mL of adenosine deaminase at 37° C. A unit of adenosine deaminase is the amount of enzyme which hydrolyzes a standard substrate (e.g., adenosine) at the rate of 1.0 μmole/min at 25° C. and pH 7.5. […] Insert: Adenosine deaminase hydrolysis kinetics for 50 μM ddA and 2'-F-dd-ara-A. The hydrolysis curve for ddA has been extrapolated from kinetics obtained with 0.07 units/mL of adenosine deaminase under identical conditions. […]
Enzymatic Deamination of Adenosine Analogues. […] The decrease in substrate concentration was monitored by HPLC analysis of the resultant ultrafiltrate (see below). The ability of 2'-deoxycoformycin to inhibit deamination under the above conditions was evaluated by adding 2 μL of 1.0 mM inhibitor to diluted substrate solutions at the time of equilibration. […] Initial hydrolysis rates for each substrate concentration were measured through linear least-squares curve fitting of the concentration versus time data for reaction of the first 10% of substrate. KM and vmax values for each substrate were then determined from a graphical lineweaver-Burke plot of these initial rates (FIG. 1). […]

[3] = system: HIV-1/IIIB (CD4^+ ATH8 cells); assay: HIV cytopathic effect inhibition assay in ATH8 cells (% protection); assay type: cell-based; settings: dCF added
Experimental: HIV Cytopathic Effect Inhibition Assay.
The HIV cytopathic effect inhibition assay was performed as previously described. (Mitsuya, H. & Broder, S. Proc. Nat. Acad. Sci. USA 1986, 83, 1911) Briefly, 200,000 target CD4^+ ATH8 cells were exposed to cell-free HIV-1/IIIB at a dose of 43 (or 1087 for compound 1g) TCID50 (50% tissue culture infectious dose) for 1 h, resuspended in 2 ml of fresh culture media containing interleukin 2, and cultured at 37° C. with or without test compounds in 5% CO2 -containing humidified air. On day 8 in culture, the viable cells were counted by using the dye exclusion method. All compounds, including inactives, were evaluated a minimum of two times in separate experiments. […] The % protection against the virus was determined by the following formula: 100 times [(the number of viable cells exposed to HIV-1 and cultured in the presence of the compound minus the number of viable cells exposed to HIV-1 and cultured in the absence of compound) divided by (the number of viable cells cultured alone minus the number of viable cells exposed to HIV-1 and cultured in the absence of the compound)]. The % toxicity of a compound on the target cells was determined by the following formula: 100 times [1 minus (the number of total viable cells cultured in the presence of the compound divided by the number of total viable cells cultured alone)]. […]

patients with AIDS = settings: cited from earlier work

Row | Compound | in vitro activity against HIV (in words) [1] | Measured Relative Rate ([2]; 50 μM substrate, ddA = 100) | vmax [2] | anti-HIV activity in the presence of dCF (in words) [3] | effectiveness in patients with AIDS (in words) (patients with AIDS)
1 | Nc1ncnc2c1ncn2[C@H]1CC[C@@H](CO)O1 [ddA, dideoxyadenosine, reference compound] | potent in vitro activity | 100 | 1.32 μmol/min/U | no important changes in the protection | –
2 | Nc1ccn([C@H]2CC[C@@H](CO)O2)c(=O)n1 [ddC, dideoxycytidine] | potent in vitro activity | – | – | – | found effective in vivo in treating patients with AIDS
